Drawing on article PMC4978918, this text covers binding for one molecule.

Results are given in words; binding and its absence hold for the method and conditions named. Binding seen in cells or lysates may run through a third protein. Some results given as binding are weak or reduced against the parent protein; the word gives no strength. Sequences can lack the tags named with a protein.

The target of this assay is T1, Scc4-3V5 (wild-type Scc4 tagged with three copies of the V5 epitope) (S. cerevisiae) (UniProt P40090).
T1 sequence: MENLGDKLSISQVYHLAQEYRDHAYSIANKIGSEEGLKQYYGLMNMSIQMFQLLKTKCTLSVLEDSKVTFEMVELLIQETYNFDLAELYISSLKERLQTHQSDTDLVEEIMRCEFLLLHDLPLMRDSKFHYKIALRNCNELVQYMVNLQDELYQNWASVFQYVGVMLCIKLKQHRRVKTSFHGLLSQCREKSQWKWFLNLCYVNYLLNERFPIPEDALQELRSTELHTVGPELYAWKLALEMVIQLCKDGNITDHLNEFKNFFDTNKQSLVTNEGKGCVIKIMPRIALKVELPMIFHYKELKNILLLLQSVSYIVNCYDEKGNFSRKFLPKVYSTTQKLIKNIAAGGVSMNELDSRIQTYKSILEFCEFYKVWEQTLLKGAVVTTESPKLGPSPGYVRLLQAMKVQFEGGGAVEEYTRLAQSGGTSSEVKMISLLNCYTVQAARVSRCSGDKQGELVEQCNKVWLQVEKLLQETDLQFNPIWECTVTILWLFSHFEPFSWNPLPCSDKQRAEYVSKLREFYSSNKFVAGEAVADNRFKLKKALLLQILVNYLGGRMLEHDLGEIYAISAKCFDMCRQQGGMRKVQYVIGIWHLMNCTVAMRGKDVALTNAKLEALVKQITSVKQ
Put plainly: co-IP; anti-V5 IP of Scc4-3V5 or scc4-RID-3V5 from yeast extracts, cells at midlog phase in YPD at 23°, IPH50 buffer (50 mM Tris pH 8.0, 50 mM NaCl, 5 mM EDTA, 0.5% NP-40), 4°; blot with anti-Myc (Scc2) or anti-HA (Smc1).

B1: Scc2-12Myc (protein, UniProt Q04002 1-1493)
chain: MSYPGKDKNIPGRIIEALEDLPLSYLVPKDGLAALVNAPMRVSLPFDKTIFTSADDGRDVNINVLGTANSTTSSIKNEAEKERLVFKRPSNFTSSANSVDYVPTNFLEGLSPLAQSVLSTHKGLNDSINIEKKSEIVSRPEAKHKLESVTSNAGNLSFNDNSSNKKTKTSTGVTMTQANLAEQYLNDLKNILDIVGFDQNSAEIGNIEYWLQLPNKKFVLTTNCLTKLQMTIKNITDNPQLSNSIEITWLLRLLDVMVCNIKFSKSSLKMGLDDSMLRYIALLSTIVLFNIFLLGKNDSNLHRESYIMEPVNFLSDLIESLKILTIEYGSLKIEFDTFQEALELLPKYIRNGPFLDDNVTAKLVYIFSDLLMNNDIEATTNIQFQSFWDNVKRISSDILVSLFGSFDQQRGFIIEELLSHIEKLPTKRIQKKLRKVGNQNIYITDFTFTLMSMLENINCYSFCNQMKDIAPENIDLLKNEYKKQEEFLFNIVEHINDTILERFFKNPSALRYVIDNFVQDLLLLISSPQWPVTEKILSSLLKRLLSVYSPSMQVSANIETICLQLIGNIGSTIFDIKCSTRDHEDNNLIKMINYPETLPHFFKSFEECIAYNETIKCRRSATRFLWNLRLGTILILEEYTKDAKEQIITVDNELKKILEQIKDGGLGPELENREADFSTIKLDYFSILHAFELLNLYDPYLKLILSLLAKDKIKLRSTAIKCLSMLASKDKVILSNPMVKETIHRRLNDSSASVKDAILDLVSINSSYFEFYQQINNNYNDDSIMVRKHVLRINEKMYDETNDIVTKVYVIARILMKIEDEEDNIIDMARLILLNRWILKVHEVLDQPEKLKEISSSVLLVMSRVAIMNEKCSQLFDLFLNFYLLNKEAHSKEAYDKITHVLTILTDFLVQKIVELNSDDTNEKNSIVDKQNFLNLLAKFADSTVSFLTKDHITALYPYMVSDEKSDFHYYILQVFRCTFEKLANFKQKFLYDLETTLLSRLPKMNVREIDEAMPLIWSVATHRHDTARVAKACSSCLSHLHPYINKANNEEAAIVVDGKLQRLIYLSTGFARFCFPKPSNDKIAFLQEGETLYEHITKCLLVLSKDKITHVIRRVAVKNLTKLCGNHPKLFNSRHVLHLLDKEFQSDQLDIKLVILESLYDLFLLEERKSVRNTGVNSTLSSNSILKKKLLKTNRVEFANDGVCSALATRFLDNILQLCLLRDLKNSLVAIRLLKLILKFGYTNPSHSIPTVIALFASTSQYIRHVAYELLEDLFEKYETLVFSSLSRGVTKAIHYSIHTDEKYYYKHDHFLSLLEKLCGTGKKNGPKFFKVLKRIMQSYLDDITDLTSTNSSVQKSIFVLCTNISNITFVSQYDLVSLLKTIDLTTDRLKEVIMDEIGDNVSSLSVSEEKLSGIILIQLSLQDLGTYLLHLYGLRDDVLLLDIVEESELKNKQLPAKKPDISKFSAQLENIEQYSSNGKLLTYFRKHVKDT
Consider B1, for which the binding result is listed as “binds”.
